# Experimental data taken from publication PMC11165425.
# No constants are given. Whether binding was seen depends on the method and setting. Binding seen in cells or lysates may run through a third protein. A yes stands for co-enrichment or nearness to the bait. Other partners may have been found. Sequences can lack the tags named with a protein.
# T1: GFP-SRP19 (human) (UniProt P09132)
# T1 sequence: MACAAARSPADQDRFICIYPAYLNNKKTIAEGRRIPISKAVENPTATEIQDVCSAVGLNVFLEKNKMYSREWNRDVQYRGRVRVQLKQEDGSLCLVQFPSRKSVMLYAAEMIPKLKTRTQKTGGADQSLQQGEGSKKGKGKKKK
# T2: GFP-SRP72 (human) (UniProt O76094)
# T2 sequence: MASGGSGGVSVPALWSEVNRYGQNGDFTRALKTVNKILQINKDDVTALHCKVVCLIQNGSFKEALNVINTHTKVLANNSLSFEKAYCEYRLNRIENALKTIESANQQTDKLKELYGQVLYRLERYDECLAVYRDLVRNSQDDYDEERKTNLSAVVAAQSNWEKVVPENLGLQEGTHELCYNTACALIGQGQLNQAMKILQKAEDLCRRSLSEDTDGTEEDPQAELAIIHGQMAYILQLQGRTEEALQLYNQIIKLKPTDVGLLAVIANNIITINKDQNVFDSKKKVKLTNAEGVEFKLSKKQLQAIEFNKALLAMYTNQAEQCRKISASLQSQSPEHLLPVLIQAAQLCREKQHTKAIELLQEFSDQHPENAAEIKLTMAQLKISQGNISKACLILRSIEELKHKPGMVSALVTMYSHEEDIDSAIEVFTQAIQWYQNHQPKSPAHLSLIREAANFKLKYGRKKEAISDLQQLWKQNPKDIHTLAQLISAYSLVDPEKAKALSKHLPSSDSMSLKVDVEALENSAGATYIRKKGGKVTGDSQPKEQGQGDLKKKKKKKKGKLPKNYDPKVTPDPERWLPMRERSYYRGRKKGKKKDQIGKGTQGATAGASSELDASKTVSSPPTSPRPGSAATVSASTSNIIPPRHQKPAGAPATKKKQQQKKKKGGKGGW
# B1: SRβ (protein, UniProt Q9Y5M8 1-271)
# chain: MASADSRRVADGGGAGGTFQPYLDTLRQELQQTDPTLLSVVVAVLAVLLTLVFWKLIRSRRSSQRAVLLVGLCDSGKTLLFVRLLTGLYRDTQTSITDSCAVYRVNNNRGNSLTLIDLPGHESLRLQFLERFKSSARAIVFVVDSAAFQREVKDVAEFLYQVLIDSMGLKNTPSFLIACNKQDIAMAKSAKLIQQQLEKELNTLRVTRSAAPSTLDSSSTAPAQLGKKGKEFEFSQLPLKVEFLECSAKGGRGDVGSADIQDLEKWLAKIA
# B2: MOGS (protein, UniProt Q13724 1-837)
# chain: MARGERRRRAVPAEGVRTAERAARGGPGRRDGRGGGPRSTAGGVALAVVVLSLALGMSGRWVLAWYRARRAVTLHSAPPVLPADSSSPAVAPDLFWGTYRPHVYFGMKTRSPKPLLTGLMWAQQGTTPGTPKLRHTCEQGDGVGPYGWEFHDGLSFGRQHIQDGALRLTTEFVKRPGGQHGGDWSWRVTVEPQDSGTSALPLVSLFFYVVTDGKEVLLPEVGAKGQLKFISGHTSELGDFRFTLLPPTSPGDTAPKYGSYNVFWTSNPGLPLLTEMVKSRLNSWFQHRPPGAPPERYLGLPGSLKWEDRGPSGQGQGQFLIQQVTLKIPISIEFVFESGSAQAGGNQALPRLAGSLLTQALESHAEGFRERFEKTFQLKEKGLSSGEQVLGQAALSGLLGGIGYFYGQGLVLPDIGVEGSEQKVDPALFPPVPLFTAVPSRSFFPRGFLWDEGFHQLVVQRWDPSLTREALGHWLGLLNADGWIGREQILGDEARARVPPEFLVQRAVHANPPTLLLPVAHMLEVGDPDDLAFLRKALPRLHAWFSWLHQSQAGPLPLSYRWRGRDPALPTLLNPKTLPSGLDDYPRASHPSVTERHLDLRCWVALGARVLTRLAEHLGEAEVAAELGPLAASLEAAESLDELHWAPELGVFADFGNHTKAVQLKPRPPQGLVRVVGRPQPQLQYVDALGYVSLFPLLLRLLDPTSSRLGPLLDILADSRHLWSPFGLRSLAASSSFYGQRNSEHDPPYWRGAVWLNVNYLALGALHHYGHLEGPHQARAAKLHGELRANVVGNVWRQYQATGFLWEQYSDRDGRGMGCRPFHGWTSLVLLAMAEDY
# B3: SRα (protein, UniProt P08240 1-638)
# chain: MLDFFTIFSKGGLVLWCFQGVSDSCTGPVNALIRSVLLQERGGNNSFTHEALTLKYKLDNQFELVFVVGFQKILTLTYVDKLIDDVHRLFRDKYRTEIQQQSALSLLNGTFDFQNDFLRLLREAEESSKIRAPTTMKKFEDSEKAKKPVRSMIETRGEKPKEKAKNSKKKGAKKEGSDGPLATSKPVPAEKSGLPVGPENGVELSKEELIRRKREEFIQKHGRGMEKSNKSTKSDAPKEKGKKAPRVWELGGCANKEVLDYSTPTTNGTPEAALSEDINLIRGTGSGGQLQDLDCSSSDDEGAAQNSTKPSATKGTLGGMFGMLKGLVGSKSLSREDMESVLDKMRDHLIAKNVAADIAVQLCESVANKLEGKVMGTFSTVTSTVKQALQESLVQILQPQRRVDMLRDIMDAQRRQRPYVVTFCGVNGVGKSTNLAKISFWLLENGFSVLIAACDTFRAGAVEQLRTHTRRLSALHPPEKHGGRTMVQLFEKGYGKDAAGIAMEAIAFARNQGFDVVLVDTAGRMQDNAPLMTALAKLITVNTPDLVLFVGEALVGNEAVDQLVKFNRALADHSMAQTPRLIDGIVLTKFDTIDDKVGAAISMTYITSKPIVFVGTGQTYCDLRSLNAKAVVAALMKA
# B4: SRP68 (protein, UniProt Q9UHB9 1-627)
# chain: MAAEKQVPGGGGGGGSGGGGGSGGGGSGGGRGAGGEENKENERPSAGSKANKEFGDSLSLEILQIIKESQQQHGLRHGDFQRYRGYCSRRQRRLRKTLNFKMGNRHKFTGKKVTEELLTDNRYLLLVLMDAERAWSYAMQLKQEANTEPRKRFHLLSRLRKAVKHAEELERLCESNRVDAKTKLEAQAYTAYLSGMLRFEHQEWKAAIEAFNKCKTIYEKLASAFTEEQAVLYNQRVEEISPNIRYCAYNIGDQSAINELMQMRLRSGGTEGLLAEKLEALITQTRAKQAATMSEVEWRGRTVPVKIDKVRIFLLGLADNEAAIVQAESEETKERLFESMLSECRDAIQVVREELKPDQKQRDYILEGEPGKVSNLQYLHSYLTYIKLSTAIKRNENMAKGLQRALLQQQPEDDSKRSPRPQDLIRLYDIILQNLVELLQLPGLEEDKAFQKEIGLKTLVFKAYRCFFIAQSYVLVKKWSEALVLYDRVLKYANEVNSDAGAFKNSLKDLPDVQELITQVRSEKCSLQAAAILDANDAHQTETSSSQVKDNKPLVERFETFCLDPSLVTKQANLVHFPPGFQPIPCKPLFFDLALNHVAFPPLEDKLEQKTKSGLTGYIKGIFGFRS
# B5: SRP72 (protein, UniProt O76094 1-671)
# chain: T2 sequence
# Molecular target: GFP-SRP14 (human) (UniProt P37108)
# Assay: affinity purification with mass spectrometry; IP-SILAC: GFP-Trap beads on whole-cell extracts of HEK293 Flp-In T-REx cells (GFP-SRP19, GFP-SRP9, GFP-SRP14) or U2OS Flp-In T-REx cells (GFP-SRP72) induced 3 h, against parental cells; HNT buffer (20 mM Hepes pH 7.4, 150 mM NaCl, 0.5% Triton X-100), 1.5 h at 4°C; positive: SILAC ratio above 1
row,binding,Binder
1,binds,B1
2,binds,B2

row,Binder,binding
1,B3,binds

# Molecular target: T1, GFP-SRP19 (human)
# Assay: as above
row,binding,Binder
1,binds,B4
2,binds,B5
3,binds,B1
4,binds,B2

row,Binder,binding
1,B3,binds

# Molecular target: T2, GFP-SRP72 (human)
# Assay: as above
row,binding,Binder
1,binds,B4
2,binds,B1
3,binds,B2

row,Binder,binding
1,B3,binds

# Molecular target: GFP-SRP9 (human) (UniProt P49458)
# Assay: as above
row,binding,Binder
1,binds weakly,B4
2,binds weakly,B5
3,binds,B1
4,binds,B2

row,Binder,binding
1,B3,binds
